Results on 32 targets are retold here after the supplement of paper PMC10849652.

Chains of the proteins cited; added tags and fusions are not shown. Lines headed by an entry give the natural chain unless they say otherwise; changes in a name come on top.
UniProt Q9NRP2: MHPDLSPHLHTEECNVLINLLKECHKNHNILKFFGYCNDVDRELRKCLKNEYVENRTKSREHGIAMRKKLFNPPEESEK
UniProt Q9NX76: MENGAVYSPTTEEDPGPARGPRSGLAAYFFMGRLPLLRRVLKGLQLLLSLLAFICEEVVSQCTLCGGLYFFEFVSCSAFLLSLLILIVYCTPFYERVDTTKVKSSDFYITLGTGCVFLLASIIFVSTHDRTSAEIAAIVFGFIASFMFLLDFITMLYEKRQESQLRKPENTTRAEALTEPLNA
UniProt Q9BT09: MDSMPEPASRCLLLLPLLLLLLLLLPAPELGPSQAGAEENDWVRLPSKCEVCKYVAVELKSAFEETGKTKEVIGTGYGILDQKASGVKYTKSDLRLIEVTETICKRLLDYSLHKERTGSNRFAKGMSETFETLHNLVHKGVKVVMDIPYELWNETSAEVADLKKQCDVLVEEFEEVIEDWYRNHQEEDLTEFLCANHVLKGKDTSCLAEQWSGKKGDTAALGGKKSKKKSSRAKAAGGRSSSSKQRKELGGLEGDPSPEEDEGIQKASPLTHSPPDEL
UniProt Q6PJW8: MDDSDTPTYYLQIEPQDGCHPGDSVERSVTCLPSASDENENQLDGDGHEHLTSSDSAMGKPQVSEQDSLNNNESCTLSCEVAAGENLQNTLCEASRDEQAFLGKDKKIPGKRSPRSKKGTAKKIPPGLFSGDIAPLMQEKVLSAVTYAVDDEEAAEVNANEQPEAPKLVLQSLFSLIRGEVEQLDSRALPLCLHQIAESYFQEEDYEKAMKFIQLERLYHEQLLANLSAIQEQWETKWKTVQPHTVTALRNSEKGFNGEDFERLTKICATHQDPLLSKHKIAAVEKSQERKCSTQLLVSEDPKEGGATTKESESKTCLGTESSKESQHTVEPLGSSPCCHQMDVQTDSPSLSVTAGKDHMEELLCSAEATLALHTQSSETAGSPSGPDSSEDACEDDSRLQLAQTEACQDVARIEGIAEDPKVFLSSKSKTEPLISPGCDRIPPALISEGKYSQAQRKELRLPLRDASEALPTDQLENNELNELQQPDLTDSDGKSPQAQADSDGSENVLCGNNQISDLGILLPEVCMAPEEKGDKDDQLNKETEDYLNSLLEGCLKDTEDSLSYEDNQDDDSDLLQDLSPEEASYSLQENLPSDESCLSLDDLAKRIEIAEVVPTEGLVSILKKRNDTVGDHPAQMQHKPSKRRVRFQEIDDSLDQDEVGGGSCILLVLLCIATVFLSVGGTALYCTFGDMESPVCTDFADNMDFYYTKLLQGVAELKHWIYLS
UniProt Q9H6Q4: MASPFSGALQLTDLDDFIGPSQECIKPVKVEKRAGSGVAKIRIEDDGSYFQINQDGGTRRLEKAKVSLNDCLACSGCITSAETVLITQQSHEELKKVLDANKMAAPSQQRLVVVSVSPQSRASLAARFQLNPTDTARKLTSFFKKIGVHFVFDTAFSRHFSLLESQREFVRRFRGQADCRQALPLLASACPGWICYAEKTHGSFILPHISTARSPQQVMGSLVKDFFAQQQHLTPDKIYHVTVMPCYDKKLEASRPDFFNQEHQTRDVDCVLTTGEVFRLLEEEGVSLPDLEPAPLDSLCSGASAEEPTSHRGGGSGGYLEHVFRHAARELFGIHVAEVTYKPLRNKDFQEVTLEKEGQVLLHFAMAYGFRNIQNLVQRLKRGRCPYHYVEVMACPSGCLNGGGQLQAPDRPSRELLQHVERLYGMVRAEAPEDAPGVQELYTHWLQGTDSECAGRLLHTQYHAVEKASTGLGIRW
UniProt Q9Y2B0: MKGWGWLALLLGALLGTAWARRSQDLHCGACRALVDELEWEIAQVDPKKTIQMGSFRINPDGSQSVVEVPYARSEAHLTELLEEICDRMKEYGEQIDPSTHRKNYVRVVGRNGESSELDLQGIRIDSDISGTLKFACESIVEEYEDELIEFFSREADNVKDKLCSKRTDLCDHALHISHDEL
UniProt Q7Z7K0: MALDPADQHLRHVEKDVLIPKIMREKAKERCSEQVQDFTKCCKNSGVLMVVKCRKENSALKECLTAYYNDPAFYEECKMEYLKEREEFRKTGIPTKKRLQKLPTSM
UniProt P0C7P0: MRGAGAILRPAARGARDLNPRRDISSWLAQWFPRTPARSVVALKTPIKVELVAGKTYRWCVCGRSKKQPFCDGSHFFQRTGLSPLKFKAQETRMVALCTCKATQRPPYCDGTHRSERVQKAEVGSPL
UniProt Q8NFW8: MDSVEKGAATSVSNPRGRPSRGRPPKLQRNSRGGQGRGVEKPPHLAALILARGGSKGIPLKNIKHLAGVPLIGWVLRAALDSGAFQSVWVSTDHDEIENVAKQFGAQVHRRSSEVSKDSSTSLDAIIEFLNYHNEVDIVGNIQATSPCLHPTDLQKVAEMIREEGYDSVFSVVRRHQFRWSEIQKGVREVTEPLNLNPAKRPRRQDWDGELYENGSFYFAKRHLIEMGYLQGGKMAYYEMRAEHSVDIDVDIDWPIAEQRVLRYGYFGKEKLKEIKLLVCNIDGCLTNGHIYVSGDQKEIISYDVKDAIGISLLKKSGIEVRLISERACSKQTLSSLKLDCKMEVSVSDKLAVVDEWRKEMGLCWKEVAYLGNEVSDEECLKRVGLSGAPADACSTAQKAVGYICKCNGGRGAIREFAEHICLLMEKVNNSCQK
UniProt P09543: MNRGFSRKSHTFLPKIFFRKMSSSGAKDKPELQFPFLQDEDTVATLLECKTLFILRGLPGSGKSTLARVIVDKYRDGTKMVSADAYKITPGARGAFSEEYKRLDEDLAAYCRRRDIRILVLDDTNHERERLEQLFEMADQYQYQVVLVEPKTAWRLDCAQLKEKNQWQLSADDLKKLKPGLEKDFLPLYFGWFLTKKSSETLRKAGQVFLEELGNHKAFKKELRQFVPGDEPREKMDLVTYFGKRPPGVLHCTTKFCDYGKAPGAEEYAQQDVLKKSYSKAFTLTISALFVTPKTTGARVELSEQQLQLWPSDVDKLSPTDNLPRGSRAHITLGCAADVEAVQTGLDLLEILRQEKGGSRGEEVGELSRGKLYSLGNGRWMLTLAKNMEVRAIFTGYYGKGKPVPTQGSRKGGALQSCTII
UniProt Q8NE01: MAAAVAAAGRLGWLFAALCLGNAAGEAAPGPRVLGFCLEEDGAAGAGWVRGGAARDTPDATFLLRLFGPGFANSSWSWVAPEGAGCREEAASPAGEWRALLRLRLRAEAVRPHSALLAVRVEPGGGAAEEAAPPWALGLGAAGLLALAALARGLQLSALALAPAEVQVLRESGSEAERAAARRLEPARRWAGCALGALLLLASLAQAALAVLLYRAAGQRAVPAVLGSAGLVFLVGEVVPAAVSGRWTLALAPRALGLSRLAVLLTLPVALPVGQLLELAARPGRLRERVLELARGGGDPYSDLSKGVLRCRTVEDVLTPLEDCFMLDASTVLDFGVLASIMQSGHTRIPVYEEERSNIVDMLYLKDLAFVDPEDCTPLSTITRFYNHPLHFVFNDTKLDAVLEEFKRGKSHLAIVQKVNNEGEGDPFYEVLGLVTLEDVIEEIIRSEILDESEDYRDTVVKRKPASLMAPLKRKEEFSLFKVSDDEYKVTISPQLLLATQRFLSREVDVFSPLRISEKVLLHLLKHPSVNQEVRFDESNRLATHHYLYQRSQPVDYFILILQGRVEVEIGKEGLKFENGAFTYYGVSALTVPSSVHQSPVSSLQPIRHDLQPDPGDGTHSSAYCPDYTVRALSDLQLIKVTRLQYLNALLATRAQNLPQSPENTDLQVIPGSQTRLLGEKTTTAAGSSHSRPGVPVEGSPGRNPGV
UniProt Q6P4Q7: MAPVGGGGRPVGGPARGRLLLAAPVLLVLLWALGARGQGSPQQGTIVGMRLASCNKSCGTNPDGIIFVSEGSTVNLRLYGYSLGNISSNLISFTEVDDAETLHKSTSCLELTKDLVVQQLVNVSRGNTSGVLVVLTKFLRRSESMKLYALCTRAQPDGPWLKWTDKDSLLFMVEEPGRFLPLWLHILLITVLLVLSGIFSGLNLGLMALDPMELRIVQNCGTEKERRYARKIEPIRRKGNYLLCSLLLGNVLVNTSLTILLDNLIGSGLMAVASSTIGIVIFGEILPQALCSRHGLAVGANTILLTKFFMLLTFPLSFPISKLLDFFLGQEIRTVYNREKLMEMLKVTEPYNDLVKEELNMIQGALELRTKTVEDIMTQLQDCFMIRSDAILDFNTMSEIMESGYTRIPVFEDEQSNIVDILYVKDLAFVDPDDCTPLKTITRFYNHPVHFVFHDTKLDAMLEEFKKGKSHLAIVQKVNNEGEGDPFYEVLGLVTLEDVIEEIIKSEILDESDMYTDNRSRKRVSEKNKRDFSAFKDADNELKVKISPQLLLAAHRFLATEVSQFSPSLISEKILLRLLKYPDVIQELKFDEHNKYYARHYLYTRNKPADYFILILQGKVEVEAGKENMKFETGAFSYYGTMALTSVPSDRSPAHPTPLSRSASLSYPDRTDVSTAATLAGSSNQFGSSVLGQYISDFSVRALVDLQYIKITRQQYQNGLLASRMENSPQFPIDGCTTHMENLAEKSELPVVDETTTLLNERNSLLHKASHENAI
UniProt Q14008: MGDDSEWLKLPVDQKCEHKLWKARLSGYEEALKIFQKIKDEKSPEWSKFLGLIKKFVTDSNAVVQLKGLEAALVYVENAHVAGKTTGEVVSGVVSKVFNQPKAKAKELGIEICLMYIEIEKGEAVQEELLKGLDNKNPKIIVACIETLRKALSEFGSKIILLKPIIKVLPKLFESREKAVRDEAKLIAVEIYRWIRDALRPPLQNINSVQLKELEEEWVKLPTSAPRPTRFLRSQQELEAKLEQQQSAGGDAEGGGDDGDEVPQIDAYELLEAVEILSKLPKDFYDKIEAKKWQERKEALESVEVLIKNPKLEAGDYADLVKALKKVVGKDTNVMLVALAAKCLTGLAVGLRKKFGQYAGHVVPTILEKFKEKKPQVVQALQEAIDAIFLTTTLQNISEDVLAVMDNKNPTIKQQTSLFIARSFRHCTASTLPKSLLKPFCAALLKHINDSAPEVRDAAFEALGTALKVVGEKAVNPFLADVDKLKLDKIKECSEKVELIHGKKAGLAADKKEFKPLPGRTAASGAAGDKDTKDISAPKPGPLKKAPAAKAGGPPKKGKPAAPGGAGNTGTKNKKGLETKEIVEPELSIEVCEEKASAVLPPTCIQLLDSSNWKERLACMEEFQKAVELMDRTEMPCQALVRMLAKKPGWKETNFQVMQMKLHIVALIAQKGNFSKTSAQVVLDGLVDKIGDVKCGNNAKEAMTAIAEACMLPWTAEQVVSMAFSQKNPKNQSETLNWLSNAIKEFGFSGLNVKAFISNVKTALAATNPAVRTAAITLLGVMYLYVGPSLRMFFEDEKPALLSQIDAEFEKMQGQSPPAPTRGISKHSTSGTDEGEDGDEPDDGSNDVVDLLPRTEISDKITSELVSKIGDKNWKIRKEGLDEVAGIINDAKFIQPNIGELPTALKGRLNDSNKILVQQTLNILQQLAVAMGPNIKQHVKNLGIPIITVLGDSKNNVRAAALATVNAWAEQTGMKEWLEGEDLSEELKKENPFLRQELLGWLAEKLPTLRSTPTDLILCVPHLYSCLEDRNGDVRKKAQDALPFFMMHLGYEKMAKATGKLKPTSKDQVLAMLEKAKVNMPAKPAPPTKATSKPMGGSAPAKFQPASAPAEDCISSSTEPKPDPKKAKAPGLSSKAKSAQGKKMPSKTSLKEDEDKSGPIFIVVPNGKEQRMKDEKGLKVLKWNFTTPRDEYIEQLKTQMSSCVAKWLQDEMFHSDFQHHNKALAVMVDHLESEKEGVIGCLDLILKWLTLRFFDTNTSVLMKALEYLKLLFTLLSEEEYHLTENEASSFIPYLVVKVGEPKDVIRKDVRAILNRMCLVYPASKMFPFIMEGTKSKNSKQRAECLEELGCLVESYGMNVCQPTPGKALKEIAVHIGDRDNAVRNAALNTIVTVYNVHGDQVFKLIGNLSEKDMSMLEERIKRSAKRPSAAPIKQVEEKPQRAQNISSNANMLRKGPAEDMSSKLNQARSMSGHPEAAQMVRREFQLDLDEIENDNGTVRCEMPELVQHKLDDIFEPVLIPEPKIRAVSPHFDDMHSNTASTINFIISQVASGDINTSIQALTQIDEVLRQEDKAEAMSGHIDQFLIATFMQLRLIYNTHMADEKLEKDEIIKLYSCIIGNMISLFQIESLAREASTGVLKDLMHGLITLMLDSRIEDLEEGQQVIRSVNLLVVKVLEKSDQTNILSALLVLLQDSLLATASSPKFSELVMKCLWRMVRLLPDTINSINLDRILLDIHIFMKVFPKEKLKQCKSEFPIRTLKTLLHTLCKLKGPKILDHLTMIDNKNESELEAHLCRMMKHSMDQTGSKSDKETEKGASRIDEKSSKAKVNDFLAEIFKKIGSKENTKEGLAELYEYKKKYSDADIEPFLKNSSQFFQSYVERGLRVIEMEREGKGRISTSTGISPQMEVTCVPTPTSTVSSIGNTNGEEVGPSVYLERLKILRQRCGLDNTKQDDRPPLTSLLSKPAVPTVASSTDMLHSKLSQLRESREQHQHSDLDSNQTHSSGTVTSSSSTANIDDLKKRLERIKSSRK

Some of the results follow.

Compound in one assay: CC(=O)c1cnc2ccc(-c3cc(Cl)c(O)c(Cl)c3)nc2c1N[C@H]1CC[C@H](CN(C)C)CC1
Nature of the assay: log2 fold change, soluble protein after heating vs DMSO (PISA); higher = thermal stabilisation; K562 cells, 10 uM, 30 min; active = over 0.2 and 3.5 SD of the protein, either way, in both replicates (recomputed). Summed up:
(§1)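 K562 cells at 2×10^6 cells/mL were treated for 30 min with 10 μM compound, and aliquots were heated for 3 min over 48°C-58°C before pooling. Extraction used PBS with 0.5% NP-40 at 4°C, and soluble protein was the supernatant after 21,000xg for 90 min, measured by TMTpro 16plex LC-MS/MS with channel sums equalised. Thermal stability values, relative to control samples and from duplicates, are log2 fold changes.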
For CMC2 (UniProt Q9NRP2), the log2 fold change is inactive: -0.018.
The same measure, in the same setting: for CMTM6 (UniProt Q9NX76) the value was inactive: -0.14; for CNPY3 (UniProt Q9BT09), inactive: 0.052.
Same read-out and setting: for CIB1 isoform 2 (UniProt Q99828) the value was inactive: 0.035; for CNST (UniProt Q6PJW8), inactive: -0.008; for CIAO3 (UniProt Q9H6Q4), inactive: -0.002.
As to CNOT11 (UniProt Q9UKZ1), the log2 fold change was inactive: -0.165.
On the same count and under the same terms, the figure for COA1 (UniProt Q9GZY4) is inactive: -0.019; for CNPY2 (UniProt Q9Y2B0) it is inactive: -0.006; for CISD1 (UniProt Q9NZ45) it is inactive: 0.005.
As for CNOT6L (UniProt Q96LI5), the log2 fold change was inactive: -0.042.
Same read-out and setting: the figure for CNOT10 isoform 6 (UniProt Q9H9A5) is inactive: 0.004.
Consider CNOT3 (UniProt O75175), for which the log2 fold change is inactive: -0.013.
Still for that read-out and setting: the figure for COA7 (UniProt Q96BR5) is inactive: 0.015.
The same measure, in the same setting: the figure for CNTNAP4 (UniProt Q9C0A0) is inactive: 0.083; for CMC1 (UniProt Q7Z7K0) it is inactive: 0.108; for CHMP7 (UniProt Q8WUX9) it is inactive: 0.016.
Take CISD3 (UniProt P0C7P0): the log2 fold change was inactive: 0.16.
Consider CHURC1 isoform 2 (UniProt Q8WUH1), for which the log2 fold change was inactive: -0.058.
On the same count and under the same terms, the figure for CNOT9 isoform 2 (UniProt Q92600) is inactive: -0.027; for CKMT2 (UniProt P17540) it is inactive: -0.07.
Same read-out and setting: for COL1A2 (UniProt P08123) the value was inactive: 0.07; for CMAS (UniProt Q8NFW8), inactive: 0.09.
Still for that read-out and setting: for CNP (UniProt P09543) the value was inactive: -0.041; for CHORDC1 (UniProt Q9UHD1), inactive: 0.009; for CKM (UniProt P06732), inactive: -0.021.
Turning to CNNM3 (UniProt Q8NE01), the log2 fold change was inactive: -0.065.
For CNNM4 (UniProt Q6P4Q7), the log2 fold change was inactive: 0.019.
Same read-out and setting: the figure for CHST14 (UniProt Q8NCH0) is inactive: -0.023; for CKAP5 (UniProt Q14008) it is inactive: -0.069; for CISD2 (UniProt Q8N5K1) it is inactive: 0.023.
Regarding CKMT1A (UniProt P12532), the log2 fold change was inactive: -0.009.

Compound in a further assay: CC(C)(C)Cn1c(N)nc2ccc(-c3[nH]c(C(C)(C)C)nc3-c3ccc(F)cc3)nc21 [ralimetinib]
Described as above. Summed up: as §1
As for CMC2 (UniProt Q9NRP2), the log2 fold change was inactive: -0.239.
Still for that read-out and setting: the figure for CMTM6 (UniProt Q9NX76) is inactive: -0.064.
Regarding CNPY3 (UniProt Q9BT09), the log2 fold change was inactive: -0.037.
The same measure, in the same setting: for CIB1 isoform 2 (UniProt Q99828) the value was inactive: -0.012; for CNST (UniProt Q6PJW8), inactive: -0.008.
As to CIAO3 (UniProt Q9H6Q4), the log2 fold change was inactive: -0.051.
Still for that read-out and setting: the figure for CNOT11 (UniProt Q9UKZ1) is inactive: 0.073.
Regarding COA1 (UniProt Q9GZY4), the log2 fold change is inactive: -0.064.
CNPY2 (UniProt Q9Y2B0): the log2 fold change was inactive: -0.077.
For the target CISD1 (UniProt Q9NZ45), the log2 fold change is inactive: -0.052.
In the case of CNOT6L (UniProt Q96LI5), the log2 fold change is inactive: -0.031.
Take CNOT10 isoform 6 (UniProt Q9H9A5): the log2 fold change is inactive: 0.028.
As to CNOT3 (UniProt O75175), the log2 fold change is inactive: 0.014.
Still for that read-out and setting: for COA7 (UniProt Q96BR5) the value was inactive: -0.006; for CNTNAP4 (UniProt Q9C0A0), inactive: 0.037.
Take CMC1 (UniProt Q7Z7K0): the log2 fold change is inactive: -0.055.
Regarding CHMP7 (UniProt Q8WUX9), the log2 fold change is inactive: 0.107.
On to CISD3 (UniProt P0C7P0), for which the log2 fold change was inactive: -0.002.
Regarding CHURC1 isoform 2 (UniProt Q8WUH1), the log2 fold change was inactive: -0.054.
Still for that read-out and setting: the figure for CNOT9 isoform 2 (UniProt Q92600) is inactive: 0.025; for CKMT2 (UniProt P17540) it is inactive: 0.048.
For the target COL1A2 (UniProt P08123), the log2 fold change was inactive: 0.015.
Same read-out and setting: the figure for CMAS (UniProt Q8NFW8) is inactive: 0.078; for CNP (UniProt P09543) it is inactive: -0.043; for CHORDC1 (UniProt Q9UHD1) it is inactive: 0.041.
On the same count and under the same terms, the figure for CKM (UniProt P06732) is inactive: -0.002; for CNNM3 (UniProt Q8NE01) it is inactive: -0.05.
On the same count and under the same terms, the figure for CNNM4 (UniProt Q6P4Q7) is inactive: 0.066.
In the case of CHST14 (UniProt Q8NCH0), the log2 fold change is inactive: -0.029.
On the same count and under the same terms, for CKAP5 (UniProt Q14008) the value was inactive: 0.122; for CISD2 (UniProt Q8N5K1), inactive: -0.029; for CKMT1A (UniProt P12532), inactive: -0.012.

Compound in another assay: CC(C)(O)CC(=O)NCCn1ccc2ncnc(Nc3ccc(Oc4cccc(C(F)(F)F)c4)c(Cl)c3)c21
The description is as above. An outline of the steps: as §1
Turning to CMC2 (UniProt Q9NRP2), the log2 fold change is inactive: -0.035.
Turning to CMTM6 (UniProt Q9NX76), the log2 fold change is inactive: -0.05.
Take CNPY3 (UniProt Q9BT09): the log2 fold change was inactive: 0.023.
For the target CIB1 isoform 2 (UniProt Q99828), the log2 fold change is inactive: -0.066.
On the same count and under the same terms, the figure for CNST (UniProt Q6PJW8) is inactive: -0.056; for CIAO3 (UniProt Q9H6Q4) it is inactive: -0.015; for CNOT11 (UniProt Q9UKZ1) it is inactive: 0.03.
For the target COA1 (UniProt Q9GZY4), the log2 fold change is inactive: 0.008.
The same measure, in the same setting: the figure for CNPY2 (UniProt Q9Y2B0) is inactive: 0.042.
In the case of CISD1 (UniProt Q9NZ45), the log2 fold change is inactive: 0.003.
Still for that read-out and setting: for CNOT6L (UniProt Q96LI5) the value was inactive: -0.062.
On the same count and under the same terms, for CNOT10 isoform 6 (UniProt Q9H9A5) the value was inactive: -0.065.
On the same count and under the same terms, the figure for CNOT3 (UniProt O75175) is inactive: -0.063.
For COA7 (UniProt Q96BR5), the log2 fold change is inactive: -0.025.
The same measure, in the same setting: the figure for CNTNAP4 (UniProt Q9C0A0) is inactive: 0.455; for CMC1 (UniProt Q7Z7K0) it is inactive: 0.005.
CHMP7 (UniProt Q8WUX9): the log2 fold change is inactive: -0.221.
Still for that read-out and setting: for CISD3 (UniProt P0C7P0) the value was inactive: -0.048.
As for CHURC1 isoform 2 (UniProt Q8WUH1), the log2 fold change was inactive: -0.032.
Regarding CNOT9 isoform 2 (UniProt Q92600), the log2 fold change is inactive: -0.091.
Still for that read-out and setting: the figure for CKMT2 (UniProt P17540) is inactive: 0.002; for COL1A2 (UniProt P08123) it is inactive: 0.221; for CMAS (UniProt Q8NFW8) it is inactive: 0.
On the same count and under the same terms, for CNP (UniProt P09543) the value was inactive: -0.009; for CHORDC1 (UniProt Q9UHD1), inactive: -0.038; for CKM (UniProt P06732), inactive: -0.133.
For the target CNNM3 (UniProt Q8NE01), the log2 fold change is inactive: 0.022.
As for CNNM4 (UniProt Q6P4Q7), the log2 fold change is inactive: 0.045.
On the same count and under the same terms, the figure for CHST14 (UniProt Q8NCH0) is inactive: -0.19.
On to CKAP5 (UniProt Q14008), for which the log2 fold change was inactive: -0.06.
CISD2 (UniProt Q8N5K1): the log2 fold change was inactive: -0.012.
CKMT1A (UniProt P12532): the log2 fold change is inactive: -0.015.
